Results published in the supplement of paper PMC8256030.
Values joined by “and” are separate entries in the source; they are usually repeats but may differ in a detail not shown here. Equal entries are not always repeated. The list shows a part of the results. Repeats in this data set agree poorly, so a single value says little.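 HEK293T cells were given each compound shortly before transfection with a reporter in which red mCherry is followed by the SARS-CoV-2 frameshift element and then GFP in the −1 frame, so GFP appears only after frameshifting.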

Assays:
[1] = test system: HEK293T; test: percent viability (nuclei count) relative to control; higher = more viable cells; details: 10 µM; 24 h
[2] = test system: SARS-CoV-2 -1 PRF reporter mCherry-FSE-GFP(-1); test: mCherry (red) intensity as percent of control; higher = higher upstream reporter expression; details: 10 µM; 24 h; HEK293T
[3] = test system: SARS-CoV-2 -1 PRF reporter mCherry-FSE-GFP(-1); test: percent effect, decrease of GFP/mCherry ratio (-1 PRF reporter) relative to controls; higher = stronger frameshift inhibition; details: 10 µM; 24 h; HEK293T

Row | SMILES | percent viability [1] | mCherry [2] | percent effect [3]
1 | CN(C)C1=NC(=O)C(c2ccccc2)O1 (stereo not given) [tozalinone] | 149% | 90.6% | -7.23%
2 | CC[C@@H](C(N)=O)N1CCCC1=O [levetiracetam] | 277% | 111% | -1.38%
3 | COC(=O)[C@@H]1[C@H]2CC[C@@H](C[C@@H]1O)N2C | 249% | 84.1% | 0.135%
4 | COP(=O)(OC)OC=C(Cl)Cl [dichlorvos] | 64.5% | 96.3% | -4.75%
5 | Oc1ccc2ccccc2c1 | – | 122% | –
6 | CN1[C@H]2CC[C@@H]1[C@@H](C(=O)O)[C@@H](OC(=O)c1ccccc1)C2 | 129% | 92.3% | -7.85%
7 | COc1cc2nc(N3CCN(C(=O)c4ccco4)CC3)nc(N)c2cc1OC | – | 90.4% | –
8 | O=C(O)c1cc(/N=N/c2ccc(S(=O)(=O)Nc3ccccn3)cc2)ccc1O [Sulfasalazine] | – | 88.5% | –
9 | COC1=CC(=O)C[C@@H](C)[C@]12Oc1c(Cl)c(OC)cc(OC)c1C2=O [griseofulvin] | – | 107% | –
10 | CC(C)NC[C@@H](O)COc1cccc2ccccc12 | – | 127% | –
11 | O=C(CCCN1CCC2(CC1)C(=O)NCN2c1ccccc1)c1ccc(F)cc1 [spiperone] | 392% and 257% | – | 11.3% and -2.59%
12 | Cn1c2ncnc-2c(O)n(C)c1=O [Oxtriphylline] | – | 91.2% | –
13 | COc1cc([C@@H]2c3cc4c(cc3[C@@H](O[C@@H]3O[C@@H]5CO[C@@H](C)O[C@H]5[C@H](O)[C@H]3O)[C@H]3COC(=O)[C@H]23)OCO4)cc(OC)c1O | – | 114% | –
14 | COc1ccc(CCN(C)CCCC(C#N)(c2ccc(OC)c(OC)c2)C(C)C)cc1OC (stereo not given) [verapamil] | – | 101% and 80.6% | –

A different layout for some results above.
Row,SMILES,percent viability [1],mCherry [2],percent effect [3]
2,CC[C@@H](C(N)=O)N1CCCC1=O [levetiracetam],277%,111%,-1.38%
5,Oc1ccc2ccccc2c1,–,122%,–
8,O=C(O)c1cc(/N=N/c2ccc(S(=O)(=O)Nc3ccccn3)cc2)ccc1O [Sulfasalazine],–,88.5%,–
13,COc1cc([C@@H]2c3cc4c(cc3[C@@H](O[C@@H]3O[C@@H]5CO[C@@H](C)O[C@H]5[C@H](O)[C@H]3O)[C@H]3COC(=O)[C@H]23)OCO4)cc(OC)c1O,–,114%,–
